{"source": "patent US11938135B2", "about": "“Compositions and methods for treating vascular Ehlers Danlos syndrome and associated disorders” (The Johns Hopkins University, priority 2018, dated 2024)", "system": "vEDS mice", "test": "Survival of drug-treated vEDS mice (death due to aortic dissection)", "format": "in vivo, mouse", "details": "amlodipine 12 mg/kg/d", "description": "Novel knock-in glycine substitution (Col3a1 G209S/+ and Col3a1 G938D/+) vEDS mice were created using CRISPR/Cas9.\nTo introduce each mutation, 3 guide RNAs (tracrRNA+crRNA) were designed to target the DNA regions flanking the intended mutation site. A DNA oligo repair template (ssDNA oligo) was also designed that included homologous sequences upstream and downstream of the target region, as well as the intended mutation. Pronuclear injection of one-cell C57BL/6J embryos was performed by the JHU Transgenic Core using standard microinjection techniques using a mix of Cas9 protein, tracrRNA, crRNA, and ssDNA oligo diluted in RNAse free injection buffer. Injected embryos were transferred into the oviducts of pseudopregnant ICR females using established techniques. Sanger sequencing of the site was utilized to confirm introduction of the mutation, and the mice were backcrossed for at least 4 generations to eliminate off-target effects. For the G209S mouse, the mutation introduced was c.625_626 GG>TC, corresponding to p.Gly210Ser in humans. For the G938D mouse, the mutation introduced was c.2813G>A, corresponding to […] in humans. The Wild-type Human Col3a1 mRNA NCBI Accession No: NM_000090.3; the wild-type Mouse Col3a1 mRNA NCBI Accession No.: NM_009930.2. […]", "note": "For at least one compound, name, drawing or mass did not settle the structure.", "data": [{"compound": "CCOC(=O)C1=C(COCCN)NC(C)=C(C(=O)OC)C1c1ccccc1Cl", "note": "(stereo not shown) [amlodipine]", "values": [{"measurement": "risk of aortic dissection", "result": "increased the risk of aortic dissection"}]}]}
